Source: US4933348A, “Heterocyclic compounds” (priority 1985, dated 1990)
At least one compound was matched to its structure with a doubt left.

Key:
[1] = test system: SRS-A-induced contraction of guinea-pig ileum; assay: Inhibition of SRS-A-induced contraction of isolated guinea-pig ileum; set-up: species or system guinea-pig (male Hartley); details: submaximal concentration of SRS-A (derived from guinea pig lung), incubation 20 minutes, 37° C., read-out: IC 50 (M), Ileum, Anti-SRS-A
Method: (§1) (1) Inhibition of SRS-A- and LTD4 -induced contraction of guinea-pig ileum and trachea
(§2) Methods: Male Hartley guinea-pigs, weighing 500 to 700 g were sacrificed by a blow on the head The ileum and tracheal strips prepared according to the method of Constantine (Constantine, J. W., J. Pharm Pharmacol., 17, 384 (1965)) were suspended with 1.0 g tension in an organ bath containing 10 ml of Tyrode solution equilibrated with a mixture of 95% O2 and 5% CO2 at 37° C. The tissues were equilibrated for 60 minutes; during this period the Tyrode solution was replaced every 15 minutes and the loading tension was adjusted to 1.0 g. The developed tension of the tissues was measured isometrically with a strain gauge transducer, and recorded on a Recticorder. Both the contractile response of the ileum to submaximal concentration of SRS-A (derived from guinea pig lung) and tracheal response to 10^-8 M LTD4 were recorded in the absence and then in the presence of various concentrations of test compounds. The incubation time of the compounds was 20 minutes.

[2] = test system: LTD4-enhanced vascular permeability; assay: Inhibition of LTD4-enhanced vascular permeability in guinea-pig; type: in vivo, guinea-pig (male Hartley); details: p.o.
Method: (2) Inhibition of LTD4 -enhanced vascular permeability in guinea-pig
Method: Male Hartley quinea-pigs weighing 270 to 305 g, starved for 16 hours, were intradermally injected 5 ng LTD4 in a volume of 0.1 ml into two sites on the shaved back. In addition, 0.1 ml of vehicle was injected intradermally in each animal to see non-specific irritation. One ml of saline containing 1% Evans blue was intravenously injected 2 minutes before LTD4 injection. Animals were sacrificed 30 minutes after LTD4 injection. The leaked dye at the site of LTD4 or vehicle injection was extracted according to the method of Harada et al. (Harada, M. et al., J. Pharm. Pharmacol., 23, 218 (1971)) and measured photometrically at 620 nm. The LTD4 -induced skin reaction was expressed as a difference in the amount of dye between LTD4 and vehicle. Test compounds were orally administered 30 minutes before LTD4 injection.

[3] = test system: LTD4-induced contraction of guinea-pig trachea; assay: Inhibition of LTD4-induced contraction of isolated guinea-pig trachea; set-up: species or system guinea-pig (male Hartley); details: 10^-8 M LTD4
Method: as §1, §2

## CCCc1c(CSc2nnc(SCc3ccc(OC(C)C(=O)O)cc3)s2)ccc(C(C)=O)c1O (centres unmarked) [Example 34, 2-[p-[[[5-[(4-acetyl-3-hydroxy-2-propylbenzyl)thio]-1,3,4-thiadiazol-2-yl]thio]methyl]phenoxy]propionic acid]
[1]
  IC50: 1.1e-09 M
[2]
  anti-leukotriene effect by oral route (in words): potent anti-leukotriene effect
[2]; 30 minutes before LTD4 injection
  inhibition of LTD4-enhanced vascular permeability (in words): dose-dependently inhibited
[3]; isolated guinea pig trachea
  inhibition of the contractions induced by LTD4 (in words): potently inhibited
[3]; isolated guinea-pig trachea, incubation 20 minutes, 37° C., read-out: IC 50 (M), Trachea, Anti-LTD4
  IC50: 7.7e-08 M
